Results are given in words; binding and its absence hold for the method and conditions named. In cells and extracts the contact can be indirect. Some binding calls cover weakened binding; strength is not graded here.
Legend:
[1] = target: T1, thioredoxin 2 (Trx2) (mouse (endogenous in mouse atrium and HL-1 cells)) (UniProt P97493); test: co-IP; endogenous proteins from atrium mitochondria of db/+ and db/db mice; IP lysis buffer, protein A/G magnetic beads, Txnip or Trx2 antibody (20 ug/mL) or IgG, 1 h at room temperature, immunoblot; also after atrial-specific Zbtb16 or Txnip knockdown by AAV9
T1 sequence: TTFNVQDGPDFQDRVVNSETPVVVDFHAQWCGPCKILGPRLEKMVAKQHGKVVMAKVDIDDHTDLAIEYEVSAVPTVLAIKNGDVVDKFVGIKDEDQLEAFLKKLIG

[2] = target: T1, thioredoxin 2 (Trx2) (mouse (endogenous in mouse atrium and HL-1 cells)); test: co-IP; endogenous proteins from HL-1 cells (mitochondria) under high glucose (30 mM) or normal glucose; IP lysis buffer, protein A/G magnetic beads, Txnip or Trx2 antibody (20 ug/mL) or IgG, immunoblot; with Zbtb16 or Txnip knockdown by adenovirus

binding [1]: binds
binding [2]: binds
B1: thioredoxin interacting protein (Txnip) (protein, UniProt Q8BG60 1-397)
chain: MVMFKKIKSFEVVFNDPEKVYGSGEKVAGRVIVEVCEVTRVKAVRILACGVAKVLWMQGSQQCKQTLDYLRYEDTLLLEEQPTAGENEMVIMRPGNKYEYKFGFELPQGPLGTSFKGKYGCVDYWVKAFLDRPSQPTQEAKKNFEVMDLVDVNTPDLMAPVSAKKEKKVSCMFIPDGRVSVSARIDRKGFCEGDDISIHADFENTCSRIVVPKAAIVARHTYLANGQTKVFTQKLSSVRGNHIISGTCASWRGKSLRVQKIRPSILGCNILKVEYSLLIYVSVPGSKKVILDLPLVIGSRSGLSSRTSSMASRTSSEMSWIDLNIPDTPEAPPCYMDIIPEDHRLESPTTPLLDDVDDSQDSPIFMYAPEFQFMPPPTYTEVDPCVLNNNNNNNNVQ
